Source: PMC6054424, “Expression and purification of a functional heteromeric GABAA receptor for structural studies” (PLoS ONE, 2018)
Results are given in words; binding and its absence hold for the method and conditions named. Some entries that bind do so weakly or less than the wild type.

Protein sequences, listed by entry. Tags and fused reporters are not part of them. Residues count along the entry.
UniProt P62813, residues 28-455: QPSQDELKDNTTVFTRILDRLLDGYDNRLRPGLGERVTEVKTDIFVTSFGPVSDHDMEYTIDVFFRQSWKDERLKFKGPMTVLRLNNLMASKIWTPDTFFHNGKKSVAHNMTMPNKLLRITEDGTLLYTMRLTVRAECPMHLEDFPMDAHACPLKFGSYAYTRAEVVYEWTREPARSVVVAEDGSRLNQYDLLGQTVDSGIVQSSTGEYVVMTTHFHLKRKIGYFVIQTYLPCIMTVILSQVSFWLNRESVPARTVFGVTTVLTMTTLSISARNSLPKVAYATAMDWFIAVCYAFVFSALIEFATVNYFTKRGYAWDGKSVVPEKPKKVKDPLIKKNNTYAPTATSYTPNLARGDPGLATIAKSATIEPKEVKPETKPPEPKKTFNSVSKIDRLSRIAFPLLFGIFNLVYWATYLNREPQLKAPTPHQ

Target: α1-EGFP (full-length rat GABAA receptor α1 subunit with EGFP in the M3/M4 loop), in oocytes (rat) (UniProt P62813)
Assay: SEC; fluorescence detection SEC (FSEC) of 8-12 oocytes solubilised with 40 mM C12M; Superose6 10/300 GL in TBS pH 8.0, 1 mM C12M, 1 mM EDTA; GFP fluorescence of the tagged subunit followed; ferritin and EGFP as standards

binding: binds
Substance: α1-EGFP (full-length rat GABAA receptor α1 subunit with EGFP in the M3/M4 loop), in oocytes (from UniProt P62813 28-455)
